# Patent US20230287071A1
# Results are given in words; binding and its absence hold for the method and conditions named. A result given as binding can be weak or reduced; the word gives no strength.
# Target: HLA-B*44:05 (human)
# Assay: UV peptide-exchange ELISA, yield grade
row,Binder,binding
1,MELLFLDTF [… (SEQ ID NO: 396)],binds
2,SEFGAPRW [SEFGAPRW (SEQ ID NO: 44)],binds
3,SEENTGKTYF [… (SEQ ID NO: 42)],binds
4,SELSLLSLY [… (SEQ ID NO: 419)],binds
5,LEQASRIWSW [… (SEQ ID NO: 36)],binds
6,EEINELNRMI [… (SEQ ID NO: 45)],binds
7,EECGKAFSVF [… (SEQ ID NO: 397)],binds
8,GEPRKLLTQDW [… (SEQ ID NO: 418)],binds
9,AEEKAAVTSL [… (SEQ ID NO: 428)],binds
10,RETEDYSKQAL [… (SEQ ID NO: 429)],binds
11,QESVHVASY [… (SEQ ID NO: 403)],binds
12,AERDLNVTI [… (SEQ ID NO: 411)],binds
13,EEAGFPLAY [… (SEQ ID NO: 415)],binds
14,MEFQNTQSY [… (SEQ ID NO: 407)],binds
15,TEVSVLLLTF [… (SEQ ID NO: 392)],binds
16,EEAQWVRKYF [… (SEQ ID NO: 422)],binds
17,RELVHMINW [… (SEQ ID NO: 35)],binds
18,TEDYSKQAL [… (SEQ ID NO: 421)],binds
19,VENIFHNF [VENIFHNF (SEQ ID NO: 401)],binds
20,EESFRCLPEW [… (SEQ ID NO: 417)],binds
21,IETSSEYFNF [… (SEQ ID NO: 402)],binds
22,AEREQVIKL [… (SEQ ID NO: 404)],binds
23,REYEYDLKW [… (SEQ ID NO: 32)],binds
24,AEIIRYIF [AEIIRYIF (SEQ ID NO: 398)],binds
25,TELEPGLTY [… (SEQ ID NO: 413)],binds

row,Binder,binding
1,IEQGRVVLW [… (SEQ ID NO: 37)],binds
2,SETILAVGL [… (SEQ ID NO: 393)],binds
3,TESIGAQIY [… (SEQ ID NO: 391)],binds
4,QEAKPRATW [… (SEQ ID NO: 409)],binds
5,YEHAFNSIVW [… (SEQ ID NO: 405)],binds
6,AEDFVWAQW [… (SEQ ID NO: 395)],binds
7,GETVVLKNM [… (SEQ ID NO: 406)],binds
8,EEHVYESIIRW [… (SEQ ID NO: 424)],binds
9,KEAINLLKNY [… (SEQ ID NO: 423)],binds
10,IEQADWPEI [… (SEQ ID NO: 399)],binds
11,RELEEEFYSL [… (SEQ ID NO: 410)],binds
12,DEVRFFKGNKY [… (SEQ ID NO: 38)],binds
13,AEGYLDLDGI [… (SEQ ID NO: 414)],binds
14,DELMRKESQW [… (SEQ ID NO: 416)],binds
15,EENTGKTYF [… (SEQ ID NO: 41)],binds
16,EESFDSKFY [… (SEQ ID NO: 412)],binds
17,AEPPILYSEY [… (SEQ ID NO: 34)],binds
18,AEMLGSVVGNW [… (SEQ ID NO: 427)],binds
19,IEYENQKRL [… (SEQ ID NO: 33)],binds
20,REVDPDDSYVF [… (SEQ ID NO: 40)],binds
21,SEILRVTLY [… (SEQ ID NO: 394)],binds
22,TELGLFGVW [… (SEQ ID NO: 400)],binds
23,AESLFREAL [… (SEQ ID NO: 426)],binds
24,AEAMGKFKQCF [… (SEQ ID NO: 39)],binds

# The next lines start with the values.
row,binding,Binder
1,binds,REYEDGPLSL [… (SEQ ID NO: 451)]
2,binds,RELARVVTL [… (SEQ ID NO: 430)]
3,binds,AEQQQQQMY [… (SEQ ID NO: 434)]
4,binds,QELLDFTNW [… (SEQ ID NO: 431)]
5,binds,QEVAQVASAIL [… (SEQ ID NO: 441)]
6,binds,SESALQTVI [… (SEQ ID NO: 444)]
7,binds,HEDPSGSLHL [… (SEQ ID NO: 437)]
8,binds,QEVGEITNL [… (SEQ ID NO: 445)]
9,binds,AENIKKFLY [… (SEQ ID NO: 446)]
10,binds,REIENGNSF [… (SEQ ID NO: 450)]
11,binds,FETEQALRL [… (SEQ ID NO: 435)]
12,binds,SESSSAFQF [… (SEQ ID NO: 454)]
13,binds,EEYAGQITL [… (SEQ ID NO: 443)]
14,binds,AELDSKILAL [… (SEQ ID NO: 438)]
15,binds,SESPIRISV [… (SEQ ID NO: 456)]
16,binds,NEVDGEYRY [… (SEQ ID NO: 452)]
17,binds,SESKVFQLL [… (SEQ ID NO: 453)]
18,binds,KEFGLDSVEL [… (SEQ ID NO: 447)]
19,binds,ALSPVPSHW [… (SEQ ID NO: 448)]
20,binds,KESDAGKYY [… (SEQ ID NO: 442)]
21,binds,TEENGFWYL [… (SEQ ID NO: 432)]
22,binds,RENDFEPKF [… (SEQ ID NO: 449)]
23,binds,AEEGPSVPKIY [… (SEQ ID NO: 433)]
24,binds,QEVAQVASA [… (SEQ ID NO: 440)]
25,binds,AEADLSYTWDF [… (SEQ ID NO: 436)]
26,binds,QESVHVASYYW [… (SEQ ID NO: 455)]
27,binds,VEVGDRTDW [… (SEQ ID NO: 439)]
